# Publication PMC12378234, “Enzyme-mediated aminoglycoside resistance without target mimicry” (Communications Chemistry, 2025)
# Where “and” joins values, the source holds several entries; their conditions need not be identical. Equal values may be shown once. Read-outs that look alike come from different tables or passages of the source. The source gives many values for each of these; only a part stands here.
# System: BL21(DE3) E. coli transformed with pUCP18 vector expressing untagged AAC(3)-Ia
# Assay type: cell-based
# Experimental: Ten milliliters of LB containing […] ampicillin were inoculated from glycerol stocks of transformed BL21(DE3) E. coli containing genes expressing the proteins of interest in pUCP18 vectors. These cultures were incubated at 37 °C with 200 rpm agitation for 16 h. Turbidity was measured through OD600 with a NanoDrop OneC Spectrometer (Thermo Scientific). From the initial cultures, secondary 10 mL cultures were prepared with OD600 values of 0.1. These cultures were grown until OD600 values of 0.4–0.6 were reached and diluted to bring all cultures to the same OD600. Cultures were induced with 1 mM Isopropyl β-D-1-thiogalactopyranoside and incubated for 4 h. Two microliters of culture was added to 198 μL of LB with an appropriate aminoglycoside titration concentration. Each titration point was repeated n = 4 times. The formulated 96-well culture plate (Sarstedt) had OD600 measured on a 20-min interval over 17 h using a BioTek Cytation 5 Cell Imaging Multimode Reader, incubating at 37 °C with 282 cpm orbital agitation. Experiments were repeated with fresh cultures on separate days to ensure consistent trends. Data was analyzed in Microsoft Excel and GraphPad5. The remainder of the culture immediately had its RNA isolated for qPCR experiments.
smiles,measurement,setting,value
"CN[C@@H]1[C@@H](O)[C@@H](O[C@@H]2[C@@H](O)[C@H](O[C@H]3OC(CN)=CC[C@H]3N)[C@@H](N)C[C@H]2N)OC[C@]1(C)O [Sisomicin, sisomicin]",OD600 growth curve,"3 ug/mL Sisomicin, time point 00:19:10",0.104 and 0.102 and 0.1
same,OD600 growth curve,"3 ug/mL Sisomicin, time point 00:39:10",0.109 and 0.105 and 0.103
same,OD600 growth curve,"3 ug/mL Sisomicin, time point 00:59:10",0.118 and 0.112 and 0.109
same,OD600 growth curve,"3 ug/mL Sisomicin, time point 01:19:10",0.133 and 0.121 and 0.117
same,OD600 growth curve,"3 ug/mL Sisomicin, time point 01:39:10",0.154 and 0.133 and 0.13 and 0.127
same,OD600 growth curve,"3 ug/mL Sisomicin, time point 01:59:10",0.187 and 0.151 and 0.147 and 0.144
same,OD600 growth curve,"3 ug/mL Sisomicin, time point 02:19:10",0.226 and 0.175 and 0.172 and 0.168
same,OD600 growth curve,"3 ug/mL Sisomicin, time point 02:39:10",0.278 and 0.207 and 0.205 and 0.201
same,OD600 growth curve,"3 ug/mL Sisomicin, time point 02:59:10",0.334 and 0.242 and 0.246 and 0.234
same,OD600 growth curve,"3 ug/mL Sisomicin, time point 03:19:10",0.376 and 0.263 and 0.279
same,OD600 growth curve,"3 ug/mL Sisomicin, time point 03:39:10",0.405 and 0.276 and 0.305 and 0.284
same,OD600 growth curve,"3 ug/mL Sisomicin, time point 03:59:10",0.431 and 0.299 and 0.329 and 0.307
same,OD600 growth curve,"3 ug/mL Sisomicin, time point 04:19:10",0.449 and 0.314 and 0.343 and 0.319
same,OD600 growth curve,"3 ug/mL Sisomicin, time point 04:39:10",0.486 and 0.337 and 0.37 and 0.346
same,OD600 growth curve,"3 ug/mL Sisomicin, time point 04:59:10",0.522 and 0.361 and 0.398 and 0.374
same,OD600 growth curve,"3 ug/mL Sisomicin, time point 05:19:10",0.545 and 0.382 and 0.421 and 0.396
same,OD600 growth curve,"3 ug/mL Sisomicin, time point 05:39:10",0.571 and 0.402 and 0.44 and 0.415
same,OD600 growth curve,"3 ug/mL Sisomicin, time point 05:59:10",0.593 and 0.417 and 0.458 and 0.434
same,OD600 growth curve,"3 ug/mL Sisomicin, time point 06:19:10",0.617 and 0.428 and 0.476 and 0.447
same,OD600 growth curve,"3 ug/mL Sisomicin, time point 06:39:10",0.626 and 0.435 and 0.485 and 0.455
same,OD600 growth curve,"3 ug/mL Sisomicin, time point 06:59:10",0.631 and 0.443 and 0.495 and 0.461
same,OD600 growth curve,"3 ug/mL Sisomicin, time point 07:19:10",0.636 and 0.449 and 0.503 and 0.471
same,OD600 growth curve,"3 ug/mL Sisomicin, time point 07:39:10",0.64 and 0.455 and 0.514 and 0.479
same,OD600 growth curve,"3 ug/mL Sisomicin, time point 07:59:10",0.638 and 0.463 and 0.525 and 0.485
same,OD600 growth curve,"3 ug/mL Sisomicin, time point 08:19:10",0.639 and 0.469 and 0.531 and 0.496
same,OD600 growth curve,"3 ug/mL Sisomicin, time point 08:39:10",0.637 and 0.474 and 0.534 and 0.503
same,OD600 growth curve,"3 ug/mL Sisomicin, time point 08:59:10",0.638 and 0.488 and 0.54 and 0.519
same,OD600 growth curve,"3 ug/mL Sisomicin, time point 09:19:10",0.638 and 0.503 and 0.542 and 0.522
same,OD600 growth curve,"3 ug/mL Sisomicin, time point 09:39:10",0.634 and 0.509 and 0.545 and 0.521
same,OD600 growth curve,"3 ug/mL Sisomicin, time point 09:59:10",0.629 and 0.507 and 0.543 and 0.517
same,OD600 growth curve,"3 ug/mL Sisomicin, time point 10:19:10",0.623 and 0.506 and 0.541 and 0.515
same,OD600 growth curve,"3 ug/mL Sisomicin, time point 10:39:10",0.62 and 0.505 and 0.539 and 0.512
same,OD600 growth curve,"3 ug/mL Sisomicin, time point 10:59:10",0.617 and 0.504 and 0.536 and 0.51
same,OD600 growth curve,"3 ug/mL Sisomicin, time point 11:19:10",0.612 and 0.503 and 0.535 and 0.507
same,OD600 growth curve,"3 ug/mL Sisomicin, time point 11:39:10",0.61 and 0.502 and 0.532 and 0.508
same,OD600 growth curve,"3 ug/mL Sisomicin, time point 11:59:10",0.606 and 0.501 and 0.53 and 0.507
same,OD600 growth curve,"3 ug/mL Sisomicin, time point 12:19:10",0.603 and 0.5 and 0.527 and 0.505
same,OD600 growth curve,"3 ug/mL Sisomicin, time point 12:39:10",0.604 and 0.5 and 0.526 and 0.503
same,OD600 growth curve,"3 ug/mL Sisomicin, time point 12:59:10",0.601 and 0.499 and 0.523 and 0.502
same,OD600 growth curve,"6 ug/mL Sisomicin, time point 00:19:10",0.1 and 0.098 and 0.101 and 0.104
same,OD600 growth curve,"6 ug/mL Sisomicin, time point 00:39:10",0.102 and 0.1 and 0.103 and 0.106
same,OD600 growth curve,"6 ug/mL Sisomicin, time point 00:59:10",0.103 and 0.1 and 0.105 and 0.108
same,OD600 growth curve,"6 ug/mL Sisomicin, time point 01:19:10",0.103 and 0.1 and 0.106 and 0.11
same,OD600 growth curve,"6 ug/mL Sisomicin, time point 01:39:10",0.103 and 0.1 and 0.106 and 0.109
same,OD600 growth curve,"6 ug/mL Sisomicin, time point 01:59:10",0.103 and 0.1 and 0.105 and 0.11
same,OD600 growth curve,"6 ug/mL Sisomicin, time point 02:19:10",0.103 and 0.1 and 0.105 and 0.111
same,OD600 growth curve,"6 ug/mL Sisomicin, time point 02:39:10",0.102 and 0.1 and 0.105 and 0.111
same,OD600 growth curve,"6 ug/mL Sisomicin, time point 02:59:10",0.102 and 0.101 and 0.106 and 0.112
same,OD600 growth curve,"6 ug/mL Sisomicin, time point 03:19:10",0.102 and 0.101 and 0.107 and 0.112
same,OD600 growth curve,"6 ug/mL Sisomicin, time point 03:39:10",0.102 and 0.109 and 0.113
same,OD600 growth curve,"6 ug/mL Sisomicin, time point 03:59:10",0.103 and 0.104 and 0.11 and 0.114
same,OD600 growth curve,"6 ug/mL Sisomicin, time point 04:19:10",0.103 and 0.105 and 0.113 and 0.115
same,OD600 growth curve,"6 ug/mL Sisomicin, time point 04:39:10",0.103 and 0.107 and 0.114 and 0.116
same,OD600 growth curve,"6 ug/mL Sisomicin, time point 04:59:10",0.104 and 0.108 and 0.115 and 0.117
same,OD600 growth curve,"6 ug/mL Sisomicin, time point 05:19:10",0.105 and 0.11 and 0.116 and 0.117
same,OD600 growth curve,"6 ug/mL Sisomicin, time point 05:39:10",0.105 and 0.111 and 0.117 and 0.118
same,OD600 growth curve,"6 ug/mL Sisomicin, time point 05:59:10",0.105 and 0.112 and 0.118 and 0.119
same,OD600 growth curve,"6 ug/mL Sisomicin, time point 06:19:10",0.106 and 0.112 and 0.119
